AC50 data for 54 compounds are collected here from PubChem BioAssay AID1487 (National Center for Advancing Translational Sciences (NCATS), 2009).

The experiment in a line: qHTS Assay for Modulators of Lamin A Splicing. To be noted: HeLa LMNA splicing GFP/RFP minigene ratio, 48 h. In short, it runs like this:
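S3 HeLa stable clones carrying a lamin A-EGFP splicing minigene plus DsRed2 were seeded at 600 cells/well in Opti-MEM with 2% FBS, pin-dosed and incubated 48 h at 37°C. Acumen cytometry (488 nm) gave the GFP/RFP total-intensity ratio.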

The mark [1] stands for this setting: measured here: GFP splicing reporter channel.
Setting [2] is: measured here: RFP viability control channel.

The list shows a part of the results. Shown are side measurements of this screen, not its main read-out; they come without a call. Most of these compounds were active or inconclusive in the main read-out, so they are no random draw. Words in brackets tell the shape of the fitted curve; partial curves, single points and poor fits give uncertain potencies.

In the case of `CCN(CC)S(=O)(=O)c1cc(NC(=O)CCCOc2ccc(C(C)=O)cc2)ccc1C`, the AC50 is 10 µM [rising, partial curve] under setting [1] and 12.6 µM [rising, partial curve] under setting [2]. As to `O=c1c2ccccc2nc(/C=C/c2c[nH]c3ccccc23)n1CCO`, under setting [2], the half-maximal activity concentration (AC50) is 22.4 µM [rising, single point].

In the case of `NC(=S)N=Nc1c(O)n(Cc2ccc(Br)cc2)c2ccccc12`, the AC50 under setting [2] was 5.62 µM [rising, single point]. The same measure, in the same setting: for `Cc1oc2c(c1C(=O)N1CCC(C)CC1)C(=O)c1ccccc1C2=O` the value was 5.62 µM [rising, single point].

`Cc1ccc(OCC(=O)Nc2ccc3c(c2)nc2n3CCOC2)cc1`: the AC50 by setting is: under setting [1], 3.98 µM [rising, full curve, poor fit]; under setting [2], 4.47 µM [rising, full curve, poor fit].

As to `CCCC(=O)Oc1ccccc1C1SCc2cc(C)c(C)cc2CS1`, the AC50 was 11.2 µM [rising, single point] under setting [1] and 20 µM [rising, single point] under setting [2]. With `CNS(=O)(=O)c1cc(-c2nn3c(C)nnc3c3ccccc23)ccc1C`, the half-maximal activity concentration (AC50) under setting [1] is 14.1 µM [falling, single point]. As to `Cc1ccc(C)n1-n1cnc2sc(-c3ccccc3)cc2c1=O`, the AC50 under setting [2] is 14.1 µM [rising, single point]. On the same count and under the same terms, next, `O=c1[nH]c(SCc2n[nH]c(=S)n2-c2ccccc2)nc2sc3c(c12)CCC3`: 17.8 µM [rising, single point]; `CNC(=S)N1C2CCC1CC(NC(=O)NC13CC4CC(CC(C4)C1)C3)C2` (stereo not drawn): 0.282 µM [rising, partial curve, poor fit]. Turning to `COc1cc(/C=C(/C#N)c2nc3ccccc3[nH]2)ccc1OCC(=O)Nc1ccccc1C`, the AC50 under setting [1] was 6.31 µM [falling, full curve] and the AC50 under setting [2] was 4.47 µM [falling, full curve]. Turning to `O=C(NCCc1ccc(Cl)cc1)c1ccc(Cn2c(=O)[nH]c3ccccc3c2=O)cc1`, the half-maximal activity concentration (AC50) under setting [1] is 35.5 µM [falling, single point] and the AC50 under setting [2] was 31.6 µM [falling, single point]. Regarding `COc1ccc(C=NCC2COc3ccccc3O2)cc1OC` (stereo not drawn), the AC50 under setting [1] was 5.62 µM [rising, single point]. For the compound `Cc1ccccc1C1CC(c2cccs2)=NN1S(C)(=O)=O` (stereo not drawn), the half-maximal activity concentration (AC50) by setting is: under setting [1], 35.5 µM [falling, single point]; under setting [2], 22.4 µM [falling, single point]. For `COc1cccc2sc(Nc3nc(-c4cc5ccccc5oc4=O)cs3)nc12`, the concentration at half-maximal activity (AC50) under setting [2] is 0.0447 µM [rising, full curve, poor fit]. Turning to `Cc1ccc(NC(=O)Nc2nc3ccccc3s2)cc1NC(=O)Nc1nc2ccccc2s1`, the AC50 under setting [2] is 14.1 µM [falling, single point]. Regarding `COC(=O)Cc1cc(=O)[nH]c(/N=C(\N)Nc2ccc(C)cc2)n1`, under setting [1], the AC50 was 6.31 µM [rising, single point]. `O=C(Nc1ccccc1SCC1CSc2nc3ccccc3c(=O)n21)c1cccc(Cl)c1` (stereo not drawn): the AC50 under setting [2] was 6.31 µM [rising, partial curve]. Same read-out and setting: next, `COc1cc(-c2nc(-c3ccccc3)c(-c3cc([N+](=O)[O-])ccc3C)[nH]2)cc(OC)c1OC`: 15.8 µM [rising, single point].

As to `CC1=C(/C=C/C(C)=C/C=C/C(C)=C/C=C/C=C(C)/C=C/C=C(C)/C=C/C2=C(C)CCCC2(C)C)C(C)(C)CCC1`, the AC50 was 3.16 µM [falling, partial curve, poor fit] under setting [1] and 35.5 µM [falling, single point] under setting [2].

As to `CCOc1ccccc1NC(=O)c1cc2cc(C)ccc2n1C`, the AC50 reads like this: under setting [1], 0.282 µM [rising, full curve, poor fit]; under setting [2], 0.708 µM [rising, full curve]. On to `O=C(/C=C/c1ccc(Br)cc1)NC(=O)c1ccccc1O`, for which the AC50 under setting [2] is 22.4 µM [rising, single point]. Still for that read-out and setting: for `C=CCNc1ncnc2c1cnn2-c1cccc(C)c1` the value was 5.62 µM [rising, partial curve, poor fit]. As to `CN(Cc1cnccn1)C(=O)CC1C(=O)NCCN1Cc1cccc(Oc2ccccc2)c1` (stereo not drawn), the AC50 under setting [1] is 35.5 µM [falling, single point].

For `CCOC(=O)N1CCC(NC(=O)c2cnn3c2NC(c2ccco2)CC3C(F)(F)F)CC1` (stereo not drawn), the AC50 runs as follows: under setting [1], 5.01 µM [rising, partial curve]; under setting [2], 10 µM [rising, partial curve]. As to `O=C(NCC(c1ccc2c(c1)OCO2)N1CCN(c2ccc(F)cc2)CC1)c1cccc([N+](=O)[O-])c1` (stereo not drawn), the AC50 runs as follows: under setting [1], 10 µM [falling, partial curve, poor fit]; under setting [2], 11.2 µM [falling, partial curve].

`CCOC(=O)N1CCN(C(=O)COc2cccc3c2CCN(Cc2cccc(C)c2)C3=O)CC1`: the concentration at half-maximal activity (AC50) under setting [2] was 25.1 µM [rising, single point]. In the case of `Cc1nnc(SCc2ccc(C(=O)Nc3cc(Cl)ccc3C)cc2)s1`, under setting [1], the concentration at half-maximal activity (AC50) is 35.5 µM [rising, single point]. As to `Cc1c(CCC(=O)O)c(=O)oc2cc3occ(-c4ccc(F)cc4)c3cc12`, the AC50 under setting [2] was 15.8 µM [rising, single point]. As to `COc1cc(-c2ccc(NC(=O)NC3CC3)c(OC)c2)ccc1NC(=O)NC1CC1`, the AC50 under setting [1] was 10 µM [falling, partial curve]. Turning to `COc1ccc(Nc2ncnc3c2c(-c2ccccc2)cn3-c2ccc(C)c(Cl)c2)cc1OC`, the AC50 under setting [2] was 0.0224 µM [falling, full curve, poor fit].

`COc1ccc(C2=Nc3ccccc3OC2)cc1`: under setting [2], the AC50 is 15.8 µM [rising, single point]. Consider `Cc1cc(Br)cc2c(C(=O)Nc3c(C)n(C)n(-c4ccccc4)c3=O)cc(-c3cccs3)nc12`, for which the half-maximal activity concentration (AC50) under setting [2] is 35.5 µM [rising, single point].

For the compound `O=C(c1noc2c1CCc1ccccc1-2)N1CCc2ccccc2C1`, the AC50 under setting [2] was 31.6 µM [rising, single point]. In the case of `O=C(CSc1nnc(Cc2cccs2)n1Cc1ccco1)Nc1ccc(Cl)cc1Cl`, the AC50 was 15.8 µM [rising, single point] under setting [1] and 35.5 µM [rising, single point] under setting [2]. Turning to `COC(=O)c1cc(OC)c(OC)cc1NC(=O)Nc1cccc(C(C)=O)c1`, under setting [2], the concentration at half-maximal activity (AC50) is 0.00316 µM [falling, full curve, poor fit].

On to `Cc1cc(OCc2ccc(C(=O)NN=C3CCCC3)cc2)ccc1Cl`, for which the AC50 under setting [1] is 20 µM [rising, partial curve, poor fit]. The same measure, in the same setting: for `COc1ccc(OCc2ccc(-c3nc(C#N)c(NCc4ccccc4)o3)o2)cc1` the value was 2.24 µM [rising, single point]. On to `N#CCC(=O)Nc1ccc(C(=O)OCC(=O)N(Cc2ccccc2)C2CCS(=O)(=O)C2)cc1` (stereo not drawn), for which the AC50 under setting [1] is 22.4 µM [rising, single point] and the concentration at half-maximal activity (AC50) under setting [2] is 35.5 µM [rising, single point]. Turning to `CCn1c(SCC#N)nc2c(c1=O)C1(CCCC1)Cc1ccccc1-2`, the AC50 runs as follows: under setting [1], 35.5 µM [rising, single point]; under setting [2], 35.5 µM [rising, single point].

For `CCCC(=O)N(CCc1ccccc1)Cc1nc2ccccc2c(=O)[nH]1`, the concentration at half-maximal activity (AC50) under setting [2] is 17.8 µM [rising, single point].

Regarding `CCc1ccc(NCCC(=O)c2ccc(Br)cc2)cc1`, the AC50 by setting is: under setting [1], 14.1 µM [rising, single point]; under setting [2], 12.6 µM [rising, single point]. Consider `O=S(=O)(c1ccccc1Oc1ccc(Cl)cc1Cl)N1CCCCC1`, for which the AC50 is, setting by setting: under setting [1], 0.0282 µM [falling, full curve, poor fit]; under setting [2], 0.0316 µM [falling, full curve, poor fit]. Turning to `CCCOc1c(OC)cccc1C1CC(=O)Nc2cc(OC)c(OC)c(OC)c21` (stereo not drawn), the half-maximal activity concentration (AC50) under setting [2] was 12.6 µM [rising, single point]. Consider `O=C(Nc1ccc(S(=O)(=O)Nc2ccccc2)cc1)C1COc2ccccc2O1` (stereo not drawn), for which the AC50 is 35.5 µM [falling, single point] under setting [1] and 35.5 µM [falling, single point] under setting [2]. On to `Cc1ccc(C)c(NC(=O)CCC(=O)N/N=C/c2cc([N+](=O)[O-])ccc2O)c1`, for which, under setting [1], the concentration at half-maximal activity (AC50) was 15.8 µM [falling, partial curve, poor fit]. Still for that read-out and setting: next, `O=C(NCc1cccc(F)c1)C1CCCN(C(=O)N2CCOc3ccccc32)C1` (stereo not drawn): 5.62 µM [falling, partial curve]. Turning to `O=C(c1ccc(Br)o1)N1CCN(c2ccc3nnc(-c4ccccc4)n3n2)CC1`, the AC50 under setting [2] is 17.8 µM [rising, partial curve, poor fit].

Take `CN(C)c1ccc(O)c2c1CC1CC3[C@@H](N(C)C)C(=O)C(C(N)=O)=C(O)[C@]3(O)C(=O)C1=C2O` (stereo partly drawn): the concentration at half-maximal activity (AC50) under setting [1] was 4.47 µM [rising, partial curve] and the AC50 under setting [2] is 15.8 µM [rising, partial curve, poor fit].

As for `O=C(N/N=C/c1ccc2c(c1)OCO2)c1cc(-c2ccncc2)nc2ccccc12`, the AC50 under setting [1] was 2.82 µM [rising, full curve]. As to `Cc1ccc(COCCN2CCN(S(=O)(=O)c3ccc(C)cc3)CCC2=O)cc1`, the AC50 under setting [1] was 10 µM [rising, partial curve, poor fit] and the AC50 under setting [2] is 15.8 µM [rising, partial curve]. For `Cc1ccc(NC(=S)/N=C(\N)Nc2nc(C)c3cc(C)ccc3n2)c(C)c1`, under setting [2], the AC50 was 10 µM [rising, partial curve].

For the compound `CCCCNC(=O)CSc1nnc(-c2c[nH]c3ccccc23)n1CC1CCCO1` (stereo not drawn), the half-maximal activity concentration (AC50) reads like this: under setting [1], 2.24 µM [falling, partial curve, poor fit]; under setting [2], 3.55 µM [falling, single point]. Turning to `Cc1c(C(=O)O)sc2ncn(C)c(=O)c12`, the AC50 under setting [2] was 35.5 µM [rising, single point].
